Results taken from PubChem BioAssay AID330 (DTP/NCI, 2004).
The list shows only some results of the screen, not a fair sample: it gathers tests that were run many times, whatever their T/C, doses with no T/C, and many T/C values between a quarter and a half above the control. Further doses and runs are listed elsewhere. T/C gives the treated animals as a percentage of the vehicle group. Some entries give survivors of the animals treated and no T/C: the source files T/C as zero there, which appears to mark a toxic dose or a test without result, not a measured value. Some survivor counts are full or nearly so, which does not show that the dose was tolerated: the source hardly ever lists a survival T/C far under the control, and the zero likely stands for such cases as well. Survivors were counted at the toxicity check, usually on the fifth day, unless a day is given; later deaths do not show. Schedules are NCI's codes, read here as Q, the interval in days (D) or hours (H), X, the number of doses. Some entries were tested several times; their values stand side by side, smallest first. For survival time, the PubChem record calls one and a half times the control and up active, and a quarter to a half above the control has no call in these data; cut-offs in other NCI protocols can differ. Some T/C values are followed by the survivors on the day toxicity was checked, most often the fifth; where none is given, no animal had died by that day.

Tested on: P388 leukemia ip, CD2F1 mice, survival T/C
Experiment: NCI In Vivo Anticancer Drug Screen. Data for tumor model P388 Leukemia (intraperitoneal) in CD2F1 (CDF1) mice
Conditions: T/C endpoint: median survival time, higher T/C = longer survival
[1] = dose: 120.0 mg/kg/injection, schedule: Q01DX005 (ip), vehicle: Klucel (hydroxypropylcellulose) (HPC)
[2] = dose: 240.0 mg/kg/injection, schedule: Q01DX005 (ip), vehicle: Klucel (hydroxypropylcellulose) (HPC)
[3] = dose: 240.0 mg/kg/injection, schedule: Q01DX005 (ip), vehicle: saline
[4] = dose: 12.5 mg/kg/injection, schedule: Q01DX009 (ip), vehicle: saline with Tween-80
[5] = dose: 25.0 mg/kg/injection, schedule: Q01DX009 (ip), vehicle: saline with Tween-80
[6] = dose: 100.0 mg/kg/injection, schedule: Q01DX009 (ip), vehicle: saline with Tween-80
[7] = dose: 200.0 mg/kg/injection, schedule: Q01DX009 (ip), vehicle: saline with Tween-80
[8] = dose: 200.0 mg/kg/injection, schedule: Q01DX005 (ip), vehicle: Klucel (hydroxypropylcellulose) (HPC)
[9] = dose: 100.0 mg/kg/injection, schedule: Q01DX009 (ip), vehicle: saline

CN(C)C1C(O)C2Oc3c(cc(O)c4c3C(=O)c3cc5c(c(O)c3C4=O)C(N=[N+]=N)CC(C)(O)C5)C(C)(O2)C1O (configuration not stated)
T/C (dose: 2.5 mg/kg/injection, schedule: Q01DX009 (ip), vehicle: other): 125 % of control
T/C (dose: 5.0 mg/kg/injection, schedule: Q01DX009 (ip), vehicle: other): 130 [5 of 6 alive] and 133 % of control
T/C (dose: 10.0 mg/kg/injection, schedule: Q01DX009 (ip), vehicle: other): 131 % of control
survivor count (dose: 20.0 mg/kg/injection, schedule: Q01DX009 (ip), vehicle: other): 5 of 6
survivor count (dose: 40.0 mg/kg/injection, schedule: Q01DX009 (ip), vehicle: other): 0 of 6
survivor count (dose: 80.0 mg/kg/injection, schedule: Q01DX009 (ip), vehicle: other): 0 of 6

O=C(NC1(Sc2ccccc2)CC1)c1ccc(Cl)cc1
survivor count (dose: 60.0 mg/kg/injection, schedule: Q01DX005 (ip), vehicle: Klucel (hydroxypropylcellulose) (HPC)): 6 of 6
survivor count [1]: 6 of 6
survivor count [2]: 1 of 6

CC(C)C1(C(=O)NNC(=O)CCCc2ccc(N(CCCl)CCCl)cc2)OC2(O)CCCCCN2C1=O (configuration not stated)
T/C (dose: 25.0 mg/kg/injection, schedule: Q04DX003 (ip), vehicle: Klucel (hydroxypropylcellulose) (HPC)): 126 % of control
T/C (dose: 50.0 mg/kg/injection, schedule: Q04DX003 (ip), vehicle: Klucel (hydroxypropylcellulose) (HPC)): 149 % of control

CC(CN(C)C)C(=O)/C=C/c1ccc(F)c(F)c1 (configuration not stated)
T/C [3]: 138 % of control
survivor count [3]: 0 of 5
survivor count (dose: 480.0 mg/kg/injection, schedule: Q01DX005 (ip), vehicle: saline): 0 of 5

O=S(=O)(CCl)OCCF
survivor count [4]: 0 of 6
survivor count [5]: 0 of 6
survivor count (dose: 50.0 mg/kg/injection, schedule: Q01DX009 (ip), vehicle: saline with Tween-80): 0 of 6
survivor count [6]: 0 of 6
survivor count [7]: 0 of 6

[O-][n+]1c2ccccc2[n+]([O-])c2c(O)cccc21
T/C (dose: 12.5 mg/kg/injection, schedule: Q01DX009 (ip), vehicle: distilled water + Tween-80): 127 % of control
survivor count (dose: 50.0 mg/kg/injection, schedule: Q01DX009 (ip), vehicle: distilled water + Tween-80): 5 of 6
survivor count (dose: 100.0 mg/kg/injection, schedule: Q01DX009 (ip), vehicle: distilled water + Tween-80): 6 of 6

CC1OC(Nc2ncnc3nc[nH]c23)C(O)C(O)C1NC(=O)CNC(=O)CCCCCCCCC/C=C\C(C)(C)C (configuration not stated)
T/C (dose: 1.0 mg/kg/injection, schedule: Q01DX009 (ip), vehicle: distilled water + Tween-80): 138 and 148 % of control
T/C (dose: 2.0 mg/kg/injection, schedule: Q01DX009 (ip), vehicle: distilled water + Tween-80): 137 and 148 % of control
T/C (dose: 4.0 mg/kg/injection, schedule: Q01DX009 (ip), vehicle: distilled water + Tween-80): 141 % of control
survivor count (dose: 8.0 mg/kg/injection, schedule: Q01DX009 (ip), vehicle: distilled water + Tween-80): 5 of 6 and 6 of 6

CCN(CC)C(=O)c1c2nc3c(C(=O)N(CC)CC)ccc(C)c3oc-2c(C)c(=O)c1N
survivor count (dose: 240.0 mg/kg/injection, schedule: Q01DX005 (ip), vehicle: saline with Tween-80): 0 of 6

CCc1nc(N)nc(N)c1-c1ccc(OC)c([N+](=O)[O-])c1
T/C (dose: 60.0 mg/kg/injection, schedule: Q01DX005 (ip), vehicle: saline with Tween-80): 142 and 146 % of control

C/C=C/C(=O)Oc1ccc[nH]c1=O
survivor count [8]: 6 of 6

CN(C)C=O
T/C (dose: 200.0 mg/kg/injection, schedule: Q01DX009 (ip), vehicle: saline): 102 [4 of 5 alive], 108, 115, 120 % of control
T/C (dose: 400.0 mg/kg/injection, schedule: Q01DX009 (ip), vehicle: saline): 111 [5 of 6 alive], 113, 116, 120 % of control
T/C (dose: 800.0 mg/kg/injection, schedule: Q01DX009 (ip), vehicle: saline): 125 % of control
T/C (dose: 1600.0 mg/kg/injection, schedule: Q01DX009 (ip), vehicle: saline): 125 and 132 % of control [4 of 6 alive]
survivor count (dose: 3200.0 mg/kg/injection, schedule: Q01DX009 (ip), vehicle: saline): 1 of 6 and 3 of 6

O=P1(NNc2ncccn2)SC(NN=C2CCCCC2)=NC12CCCCC2 (configuration not stated)
survivor count [1]: 0 of 6
survivor count [2]: 0 of 6

OC(CC1CCCCN1)c1ccccc1 (configuration not stated)
survivor count [6]: 0 of 6
survivor count [7]: 0 of 6

CC1(CCl)COP(=O)(NN)OC1 (configuration not stated)
survivor count [3]: 4 of 6

CC/C(=N\NC(N)=NC)c1ccc(Cl)cc1
survivor count (dose: 50.0 mg/kg/injection, schedule: Q04DX002 (ip), vehicle: saline): 1 of 6
survivor count (dose: 100.0 mg/kg/injection, schedule: Q04DX002 (ip), vehicle: saline): 0 of 6

Cc1cc(N2CCCCC2)cc(=O)o1
survivor count (dose: 200.0 mg/kg/injection, schedule: Q01DX009 (ip), vehicle: Klucel (hydroxypropylcellulose) (HPC)): 0 of 6

CC(=O)Nc1c2sscc-2n(C)c1=O
survivor count (dose: 3.13 mg/kg/injection, schedule: Q01DX009 (ip), vehicle: saline with Tween-80): 5 of 6
survivor count (dose: 6.25 mg/kg/injection, schedule: Q01DX009 (ip), vehicle: saline with Tween-80): 0 of 6
survivor count [4]: 0 of 6
survivor count [5]: 0 of 6

CC(C)(C)[N]=[V]([Cl])([Cl])[Cl]
survivor count (dose: 100.0 mg/kg/injection, schedule: Q01DX005 (ip), vehicle: Klucel (hydroxypropylcellulose) (HPC)): 0 of 6
survivor count [8]: 0 of 6

O=S(=O)(c1ccc(N=Cc2cccs2)cc1)c1ccc(N=Cc2cccs2)cc1
survivor count [9]: 6 of 6

COC(=O)/C(C#N)=C(\C)CCC=C(C)C
survivor count (dose: 100.0 mg/kg/injection, schedule: Q04DX003 (ip), vehicle: saline with Tween-80): 3 of 6
survivor count (dose: 200.0 mg/kg/injection, schedule: Q04DX003 (ip), vehicle: saline with Tween-80): 0 of 6
survivor count (dose: 400.0 mg/kg/injection, schedule: Q04DX003 (ip), vehicle: saline with Tween-80): 0 of 6

CN1CCN(c2ccc([N+](=O)[O-])c3no[n+]([O-])c23)CC1
T/C (dose: 5.0 mg/kg/injection, schedule: Q01DX009 (ip), vehicle: saline): 126 % of control
T/C (dose: 10.0 mg/kg/injection, schedule: Q01DX009 (ip), vehicle: saline): 134 % of control

CCCSCCNC(=O)C1(O)C(O)C2(CC)C=CCN3CCC4(c5cc(C6(OC(C)=O)CC7C=C(CC)CN(CCc8c6[nH]c6ccccc86)C7)c(OC)cc5N(C)C14)C32 (configuration not stated)
T/C (dose: 1.0 mg/kg/injection, schedule: Q01DX001 (ip), vehicle: water): 130 % of control
T/C (dose: 2.0 mg/kg/injection, schedule: Q01DX001 (ip), vehicle: water): 133 % of control
T/C (dose: 4.0 mg/kg/injection, schedule: Q01DX001 (ip), vehicle: water): 134 % of control
T/C (dose: 8.0 mg/kg/injection, schedule: Q01DX001 (ip), vehicle: water): 139 % of control
survivor count (dose: 32.0 mg/kg/injection, schedule: Q01DX001 (ip), vehicle: water): 2 of 6

NCC(=O)CN.[Cl-].[Cl-].[Pt+2]
T/C (dose: 50.0 mg/kg/injection, schedule: Q04DX003 (ip), vehicle: distilled water + Tween-80): 127 % of control
T/C (dose: 50.0 mg/kg/injection, schedule: Q04DX003 (ip), vehicle: other): 130 % of control
T/C (dose: 100.0 mg/kg/injection, schedule: Q04DX003 (ip), vehicle: distilled water + Tween-80): 141 % of control
T/C (dose: 100.0 mg/kg/injection, schedule: Q04DX003 (ip), vehicle: other): 147 % of control
T/C (dose: 200.0 mg/kg/injection, schedule: Q04DX003 (ip), vehicle: distilled water + Tween-80): 138 % of control
T/C (dose: 400.0 mg/kg/injection, schedule: Q04DX003 (ip), vehicle: distilled water + Tween-80): 148 % of control

C[N+]1(C)Cc2ccccc2C1
survivor count (dose: 50.0 mg/kg/injection, schedule: Q01DX009 (ip), vehicle: saline): 2 of 6
survivor count [9]: 0 of 6
